Results on one molecule are retold here after patent US20250127896A1, “CHIMERIC TIM4 RECEPTORS AND USES THEREOF” (CERO THERAPEUTICS HOLDINGS, INC., priority 2021, published 2025).

For the data set, the system named is transduced T cells. Kind of data set: CER T cell product characterisation by flow cytometry (Tim-4, CD45RA, CCR7, CD4/CD8). The format is cell-based. The settings on record: day 6 following transduction. Background: A flow cytometer gives signals particle by particle.

B1: CER 1183: wildtype human Tim4, SEQ ID NO:20; control molecule lacking intracellular T-cell signaling domains (protein)
chain: MSKEPLILWLMIEFWWLYLTPVTSETVVTEVLGHRVTLPCLYSSWSHNSNSMCWGKDQCPYSGCKEALIRTDGMRVTSRKSAKYRLQGTIPRGDVSLTILNPSESDSGVYCCRIEVPGWFNDVKINVRLNLQRASTTTHRTATTTTRRTTTTSPTTTRQMTTTPAALPTTVVTTPDLTTGTPLQMTTIAVFTTANTCLSLTPSTLPEEATGLLTPEPSKEGPILTAESETVLPSDSWSSVESTSADTVLLTSKESKVWDLPSTSHVSMWKTSDSVSSPQPGASDTAVPEQNKTTKTGQMDGIPMSMKNEMPISQLLMIIAPSLGFVLFALFVAFLRGKLMETYCSQKHTRLDYIGDSKNVLNDVQHGREDEDGLFTL
For the molecule B1, the “Tim4+, %” value came out at 69.4%.
